# The whole screen tested about 1,100 compounds, of which fewer than 10 were called active. About 6% were inconclusive and are not listed. Calls follow the shape of the dose curve; as a rule, active = well fitted cell-killing curve with a large enough effect; inconclusive = small, poorly fitted or top-dose-only effect; inactive = flat fitted curve, though single readings scatter. Some of the results follow.
# Assay: qHTS of Nrf2 Activators: Hit Validation in Cytotox Assay;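 also: compound exposure lasted 24 hours before the ATP readout; 0% is about no effect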
# Conditions: Cell viability counter-screen for Nrf2 activator hits; series mostly up to 46.1 µM; activity change, negative = cytotoxicity: at the top concentration
# In short: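 Intracellular ATP measured with CellTiter-Glo luminescence (30 min, room temperature) as a viability read-out. Cells: AREc32_fluc, cultured overnight before 24 h compound exposure at 7 concentrations, 37 °C; activity here marks cytotoxicity.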
row,SMILES,"activity change, negative = cytotoxicity"
1,COc1ccccc1NC(=O)CSc1ccc(-c2ccco2)nn1,inactive: 4.85%
2,CN(Cc1ccccc1)C(=O)c1ccc([N+](=O)[O-])o1,inactive: -27.9%
3,CC(C)(C)/C(O)=C/c1nc2cc(Cl)ccc2oc1=O,inactive: 1.31%
4,Cc1cc(C)cc(NC(=O)/C=C/c2ccc([N+](=O)[O-])s2)c1,inactive: 3.51%
5,O=C(Cn1cnc2scc(-c3cccc([N+](=O)[O-])c3)c2c1=O)NCc1ccco1,inactive: -1.79%
6,CC(=O)Nc1cc2oc3ccccc3c2cc1[N+](=O)[O-],inactive: 0.886%
7,O=c1[nH]c(/C=C/c2ccccc2[N+](=O)[O-])nc2ccccc12,inactive: 0.48%
8,CC(=O)COc1ccc2c(c1C)O/C(=C\c1ccco1)C2=O,inactive: 2.13%
9,COC(=O)C1=C(C)NC(=O)/C1=C\c1ccco1,inactive: -7.1%
10,O=C(NC(=S)Nc1ccccc1O)c1ccccc1Cl,inactive: 8.07%
11,O=C(COC(=O)/C=C/c1ccco1)Nc1ccc(F)cc1Cl,inactive: 1.23%
12,COC(=O)c1c(NC(=O)c2ccccc2)sc(C(N)=O)c1C,inactive: 2.59%
13,CS(=O)(=O)Nc1ccc(C(=O)Nc2cccc([N+](=O)[O-])c2)cc1,inactive: -7.34%
14,O=c1oc2ccc(Br)cc2cc1-c1nc2ccccc2o1,inactive: 0.471%
15,COc1cc(Cl)cc(/C=C/c2ccc3cccc(O)c3n2)c1OC,inactive: -0.829%
16,O=C(N/N=C/C=C/c1ccco1)c1cnccn1,inactive: 6.3%
17,COc1ccccc1NC(=O)C(=O)Nc1ccccn1,inactive: -2.4%
18,c1ccc(CNc2nc(NCc3ccco3)nc(N3CCOCC3)n2)cc1,inactive: 0.715%
19,O=c1cc(-c2ccccc2)oc2ccc(Cl)cc12,inactive: 2.11%
20,O=S(=O)(c1ccc(F)cc1)c1snnc1-c1ccccc1,inactive: 1.49%
21,Cc1ccc(S(=O)(=O)c2nc(S(C)(=O)=O)sc2N2CCC3(CC2)OCCO3)cc1,inactive: -1.38%
22,O=CNc1c(Cl)cc2c(c1Cl)Cc1cc([N+](=O)[O-])ccc1-2,inactive: 4.06%
23,O=[N+]([O-])c1ccc(/C=N/Nc2ccc3ccccc3c2)o1,inactive: -19.5%

row,SMILES,"activity change, negative = cytotoxicity"
1,O=C(CN1CC(=O)Oc2ccccc21)OCC(=O)c1ccc(F)cc1,inactive: 2.33%
2,CN(C)c1oc(/C=C/c2ccccc2)nc1C#N,inactive: -1.36%
3,CN(C)CCN(C(=O)/C=C/c1cccs1)c1nc2ccc(F)cc2s1,inactive: -13.7%
4,c1ccc(N=NC2=NN(c3ccccc3)CS2)cc1,inactive: -23.7%
5,O=c1cc(-c2cccc(Br)c2)oc2cccc(O)c12,inactive: -2.77%
6,CCc1nn2c(-c3ccco3)ccnc2c1-c1ccccc1,inactive: -2.57%
7,CCCNc1ccc(-c2nc(-c3ccco3)no2)cc1[N+](=O)[O-],inactive: 2.86%
8,N#C/C(=C\C=C\c1ccccc1[N+](=O)[O-])C(=O)NC1CCCCC1,inactive: -13.2%
9,C(=N/n1c2ccccc2c2ccccc21)/c1ccco1,inactive: 1.19%
10,O=[N+]([O-])c1cc2c(cc1Br)-c1ccccc1C2,inactive: -10.4%
11,COc1ccc([N+](=O)[O-])cc1NC(=O)CSc1nccc(C)n1,inactive: -3.22%
12,O=C1COc2ccc(C(=O)COC(=O)/C=C/c3ccco3)cc2N1,inactive: -0.414%
13,CCOC(=O)c1ccccc1N/C=C/C(=O)c1ccccc1,inactive: 1.71%
14,C#CCSc1nc(-c2ccccc2)cc(C(F)(F)F)c1C#N,inactive: 5.58%
15,Cc1cc(-c2sccc2C)nc(-n2cccc2)n1,inactive: 6.26%
16,CC(C)OC(=O)c1cn(-c2ccccc2)nc1-c1ccco1,inactive: 10.7%
17,O=C(/C=C/c1ccc(-c2ccccc2[N+](=O)[O-])o1)c1ccccc1,inactive: -4.71%
18,O=C(Nc1ccccn1)Nc1ccccc1[N+](=O)[O-],inactive: -1.04%
19,O/N=C/c1ccc2cccc(OCc3ccccc3)c2n1,inactive: 1.37%
20,Cc1ccc(O)c(NC(=O)c2cccc(NC(=O)c3ccco3)c2)c1,inactive: 2.1%
21,O=c1[nH]c(SCc2cccc([N+](=O)[O-])c2)nc2[nH]ncc12,inactive: 0.58%
22,C/C(=N/NC(=O)CNC(=O)/C=C/c1ccco1)c1ccc(Cl)cc1,inactive: -4.27%
23,O=C(NCc1ccco1)c1cc(=O)c2ccccc2o1,inactive: 9.98%

# Some of these compounds in order of number of heavy atoms, largest number first.
row,SMILES,"activity change, negative = cytotoxicity"
11,COc1ccc([N+](=O)[O-])cc1NC(=O)CSc1nccc(C)n1,inactive: -3.22%
6,CCc1nn2c(-c3ccco3)ccnc2c1-c1ccccc1,inactive: -2.57%
2,CN(C)c1oc(/C=C/c2ccccc2)nc1C#N,inactive: -1.36%

# Later entries

row,SMILES,"activity change, negative = cytotoxicity"
1,COc1ccc(NC(=O)c2cc(-c3ccco3)nc3ccccc23)cn1,inactive: 1.95%
2,Cc1cc(=O)oc2cc(NC(=O)c3ccccc3Cl)ccc12,inactive: -1.64%
3,O=C(Nc1nc(=O)c2ccccc2s1)c1ccccc1,inactive: -18.4%
4,Cc1ccc(-c2cc(C(F)(F)F)c(C#N)c(SCCC#N)n2)o1,inactive: 6.99%
5,Nc1c(Cl)c(Cl)nc(C(=O)N/N=C/c2ccco2)c1Cl,inactive: 2.18%
6,O=C(/C=C/Nc1ccc(F)c(Cl)c1)c1ccco1,inactive: -0.863%
7,C=C(NC(=O)C(=C)NC(=O)c1csc(C2=NC3c4csc(n4)C4NC(=O)c5csc(n5)C(C(C)(O)C(C)O)NC(=O)C5CSC(=N5)/C(=C/C)NC(=O)C(C(C)O)NC(=O)c5csc(n5)C3(CC2)NC(=O)C(C)NC(=O)C(=C)NC(=O)C(=C)NC(=O)C(C(C)C)NC2C=Cc3c(C(C)O)cc(nc3C2O)C(=O)OC4C)n1)C(N)=O (centres undefined),inactive: -14.5%
8,Cc1sc(NC(=O)c2ccco2)c(CN2CCCCC2)c1C,inactive: -7.31%
9,Cc1cccc(N=C/C(C(=O)C(F)(F)F)=C(\O)c2ccco2)c1,inactive: 3%
10,NC(=O)c1c(NC(=O)c2ccc([N+](=O)[O-])o2)sc2c1CCCC2,inactive: 9.52%
11,COc1ccc(-c2cc3ccccc3c(=O)o2)cc1,inactive: -5.35%
12,O=C1C=C(C#Cc2ccccc2)C[C@@H](c2ccc(F)cc2)C1,inactive: -0.58%
13,COc1ccc(NC(=O)c2cc(-c3cccs3)on2)c(OC)c1,inactive: 6.78%
14,CCOC(=O)c1c(-c2ccco2)csc1NC(=O)CSc1nnc(N)s1,inactive: -11.5%
15,N=c1n(CCN2CCOCC2)c2ccccc2n1CC(=O)c1cccc([N+](=O)[O-])c1,inactive: -2.38%
16,O=C(Nc1cnc2ccccc2c1)c1ccco1,inactive: -0.954%
17,CC(=O)Oc1ccc(-c2nc3c(C)cccc3c(=O)o2)cc1,inactive: 9.54%
18,[O-][n+]1onc2c3ccnnc3ccc21,inactive: -1.61%
19,Oc1ccc(Cl)cc1/C=C/c1ccc2cccc(O)c2n1,inactive: -7.68%
20,C=CCn1c(SCC(C)=O)nc2scc(-c3ccco3)c2c1=O,inactive: 0.123%
21,CCNc1ccc(-c2nc(-c3ccco3)no2)cc1[N+](=O)[O-],inactive: 4.03%
22,O=C(NCc1ccccc1)c1c(Cl)nc(Cl)c(Cl)c1Cl,inactive: 3.97%
23,OCCC#Cc1c(-c2ccsc2)sc2ccccc12,inactive: 2.25%

row,SMILES,"activity change, negative = cytotoxicity"
1,Cc1ccc(NC(=O)COCc2cc(-c3cccs3)on2)cc1Cl,inactive: 5.1%
2,O=C(O)c1ccc2c(=O)n3c(nc2c1)/C(=C/c1cccc(Cl)c1Cl)CC3,inactive: 4%
3,O=C1CSC(=S)N1Cc1cccnc1,inactive: 0.666%
4,COC(=O)c1sccc1NC(=O)Nc1ccc(Cl)c(Cl)c1,inactive: 1.57%
5,COC(=O)c1ccccc1NC(=O)c1cc(-c2ccco2)on1,inactive: 5.61%
6,Cc1cc(C)c2c(NC(=S)NC(=O)c3ccccc3)nn(C)c2n1,inactive: -1.81%
7,O=C(O)c1ccc(-n2ncc(Cl)c(Cl)c2=O)cc1,inactive: 4.8%
8,FC(F)(F)c1cc(-c2cccs2)nc(NCc2ccco2)n1,inactive: 7.21%
9,COc1ccc(OC)c(/C=C(\C#N)c2nc(-c3ccc(F)cc3)cs2)c1,inactive: 5.65%
10,CC(=O)Nc1ccc(O)c(-c2nc3ccccc3s2)c1,inactive: 3.1%
11,COc1cccc(NC(=O)c2nn(C)cc2Br)c1,inactive: 6.86%
12,COc1cc(/C=N/Nc2ccccn2)cc(OC)c1O,inactive: 7.25%
13,COc1ccc(C(C)=O)cc1OCc1ccccc1,inactive: 1.35%
14,COc1ccc(N2C(=O)/C(=C\c3ccco3)N=C2SCC(N)=O)cc1Cl,inactive: 4.38%
15,O=C(NN=Cc1cccc([N+](=O)[O-])c1)c1cccc2ccccc12,inactive: 3.2%
16,COc1cc(C=C(c2nc3ccccc3s2)c2nc3ccccc3s2)ccc1O,inactive: 0.894%
17,O=C(CSc1ccc(-c2ccco2)nn1)N1CCCC1,inactive: 3.86%
18,Cc1ccc2[nH]c(=O)c3cc(C(=O)N(C)Cc4ccco4)sc3c2c1,inactive: -26%
19,CNS(=O)(=O)c1ccc2nc(NC(=O)/C=C/c3ccco3)sc2c1,inactive: 3.7%
20,COc1ccc(N2CCCC2)c(NC(=O)c2ccc([N+](=O)[O-])o2)c1,inactive: -1.03%
21,Cc1ccc(Cn2c(/C=C/c3ccco3)nc3ccccc32)cc1,inactive: -21.8%
22,COc1ccc(Nc2nc(C)nc3sc4c(c23)CCC4)cc1O,inactive: 4.74%
23,O=c1cc(/C=C/c2ccccc2)oc2ccccc12,inactive: -7.87%

# Grouped by structure, those above containing a COOH group (two)
row,SMILES,"activity change, negative = cytotoxicity"
2,O=C(O)c1ccc2c(=O)n3c(nc2c1)/C(=C/c1cccc(Cl)c1Cl)CC3,inactive: 4%
7,O=C(O)c1ccc(-n2ncc(Cl)c(Cl)c2=O)cc1,inactive: 4.8%

# Continued:

row,SMILES,"activity change, negative = cytotoxicity"
1,O=C(Nc1ccc(F)cc1F)c1cc(-c2ccco2)nc2ccccc12,inactive: -3.36%
2,Cc1ccc(Sc2cnn(-c3ccccc3)c(=O)c2Cl)cc1,inactive: -3.76%
3,COc1ccccc1-c1cc(C(F)(F)F)nc(S(=O)(=O)CCCC(=O)NCc2ccc(F)cc2)n1,inactive: -11.9%
4,Cc1nc([N+](=O)[O-])c(Br)n1Cc1ccccc1,inactive: 4.95%
5,C=C1C2=C(C(=O)N1OC)[C@@H](O)[C@@](C)(O)[C@@H](CCCCC)O2,inactive: 1.75%
6,O=C(Nc1nnc(-c2cccs2)s1)c1cccc(F)c1,inactive: 7.96%
7,O=C(Nc1c(Br)cc2c(c1Br)Cc1ccccc1-2)C(F)(F)F,inactive: -1.7%
8,Cn1nc(C(=O)Nc2c(-c3ccccc3)nc3sccn23)c2ccccc2c1=O,inactive: 0.618%
9,Cc1ccc(C(=O)Nc2nc(-c3ccco3)c(-c3ccco3)s2)o1,inactive: -1.39%
10,Cc1ccc(Nc2nc(C(N)=O)c(NC(=O)c3ccccc3Br)s2)cc1,inactive: 5.73%
11,O=c1oc2ccc(Cl)cc2nc1/C=C(\O)c1ccco1,inactive: 1.02%
12,c1ccc(N/N=C2\CCCc3ccccc32)nc1,inactive: 8.99%
13,Brc1ccccc1C1N=C(c2ccccc2)NO1 (centres undefined),inactive: 9.2%
14,CCN1CCN(c2sc(S(C)(=O)=O)nc2S(=O)(=O)c2ccc(Cl)cc2)CC1,inactive: 2.42%
15,CCc1cc2c(NCc3ccco3)ncnc2s1,inactive: -10.3%
16,O=c1oc2ccccc2cc1-c1nc(-c2cccs2)cs1,inactive: 2.24%
17,COc1c(C(=O)Nc2nnc(C3CC3)s2)csc1Cl,inactive: 6.48%
18,Cc1nc(NC(=O)c2ccc(Br)o2)ccc1Br,inactive: -2.17%
19,COC(CN(C(=O)CCl)C(C(=O)NC1CCCCC1)c1ccccc1C)OC (centres undefined),inactive: 10.4%
20,CC(=O)NCCNc1nc2cc(-c3cscc3C)sc2c(=O)n1C,inactive: 7.29%
21,Cc1cc(NCc2ccco2)n2c(nc3ccccc32)c1C#N,inactive: 4.15%
22,Cc1cc(NC(=S)NC(=O)c2ccco2)c2ccccc2n1,inactive: 12.7%
